Two molecules from article PMC8313409 can be followed below.

Chains of the proteins cited; added tags and fusions are not shown.
UniProt P63017: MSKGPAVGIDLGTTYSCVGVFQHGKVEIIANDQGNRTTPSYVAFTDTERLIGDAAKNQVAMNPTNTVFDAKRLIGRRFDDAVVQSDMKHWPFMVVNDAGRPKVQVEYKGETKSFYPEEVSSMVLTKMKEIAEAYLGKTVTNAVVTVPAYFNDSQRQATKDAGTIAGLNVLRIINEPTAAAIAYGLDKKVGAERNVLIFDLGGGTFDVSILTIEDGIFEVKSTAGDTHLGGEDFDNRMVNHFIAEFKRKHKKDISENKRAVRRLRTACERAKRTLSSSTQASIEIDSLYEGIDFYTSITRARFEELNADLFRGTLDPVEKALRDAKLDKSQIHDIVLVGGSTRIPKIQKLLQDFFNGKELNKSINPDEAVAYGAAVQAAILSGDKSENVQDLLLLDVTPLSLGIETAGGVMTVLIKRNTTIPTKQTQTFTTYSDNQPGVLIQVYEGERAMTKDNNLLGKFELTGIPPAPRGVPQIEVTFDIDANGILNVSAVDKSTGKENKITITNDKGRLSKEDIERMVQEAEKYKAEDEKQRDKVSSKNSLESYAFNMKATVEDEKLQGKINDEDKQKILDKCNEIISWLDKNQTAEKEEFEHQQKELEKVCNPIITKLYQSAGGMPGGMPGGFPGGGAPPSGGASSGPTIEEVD
UniProt P25322: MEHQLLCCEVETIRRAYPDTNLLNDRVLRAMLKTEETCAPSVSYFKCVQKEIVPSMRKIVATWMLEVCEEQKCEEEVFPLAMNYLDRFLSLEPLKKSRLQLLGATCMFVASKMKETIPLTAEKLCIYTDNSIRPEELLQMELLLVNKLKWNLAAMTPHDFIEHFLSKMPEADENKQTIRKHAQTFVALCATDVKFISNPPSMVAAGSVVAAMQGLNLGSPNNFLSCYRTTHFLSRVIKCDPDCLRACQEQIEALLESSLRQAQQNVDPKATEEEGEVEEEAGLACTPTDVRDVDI

Results are given in words; binding and its absence hold for the method and conditions named. Binding seen in cells or lysates may run through a third protein. Some binding calls cover weakened binding; strength is not graded here. Where a sequence is shown, tags or fusion partners need not be part of it.

This assay concerns the target Hsc70-HA (UniProt P63017). The experiment in a line: co-IP; N2A cells expressing Hsc70-HA or Hsp90-HA with cyclin D1–Flag or CDK4-Flag; lysed at 4°C in coIP buffer (50 mM Tris HCl pH 7.4, 150 mM NaCl, 1 mM EDTA, 1% Nonidet P-40, 10% glycerol); the HA-tagged protein precipitated, Flag-tagged protein detected by immunoblot.

For “cyclin D1–Flag (from UniProt P25322 1-295)”, the binding result is given as “binds”.

B1: CDK4-Flag (protein, UniProt P30285 1-303)
chain: MAATRYEPVAEIGVGAYGTVYKARDPHSGHFVALKSVRVPNGGAAGGGLPVSTVREVALLRRLEAFEHPNVVRLMDVCATSRTDRDIKVTLVFEHIDQDLRTYLDKAPPPGLPVETIKDLMRQFLSGLDFLHANCIVHRDLKPENILVTSNGTVKLADFGLARIYSYQMALTPVVVTLWYRAPEVLLQSTYATPVDMWSVGCIFAEMFRRKPLFCGNSEADQLGKIFDLIGLPPEDDWPREVSLPRGAFAPRGPRPVQSVVPEMEESGAQLLLEMLTFNPHKRISAFRALQHSYLHKEESDAE
For B1, the binding result is “binds”.
